Laboratory results: PubChem BioAssay AID1224829 (NIAID, 2016)

Assay: 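Genes needed for LPS-driven NF-kappaB p65 nuclear entry in mouse macrophages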 (follow-up of hits)
Cells: mouse RAW264.7 G9 macrophage reporter cells
Knock-down reagent: single siRNA against mouse genes, 100 nM
Timing: 2 days of siRNA knock-down, then 40 min of LPS before fixing
Challenge: LPS (Salmonella minnesota R595) at 10 ng/ml
Read-out: 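Imaging of GFP-p65 after 40 min of LPS; nuclear over perinuclear ring intensity ratio, scaled to plate median and non-targeting control wells, given as z-score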
Reading the numbers: p65 translocation z-score and gene median z-score, per vendor: higher = more nuclear NF-kappaB p65 after LPS
Rule for the call: 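An siRNA is called active when the mean z-score of its two replicates is above 2 or below -2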
Meaning of the calls: active = changed p65 translocation (either direction); inactive = no clear change
The whole screen tested about 3,800 reagents; below is a part drawn at random. 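Calls cover raised and lowered translocation; gene median uses one vendor's three siRNAs; qiagen siRNAs acted more weakly than ambion siRNAs.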 Unmarked entries are inactive. The numbers tell different reagents against one gene apart.

With Mrpl35 #1, siRNA vendor or control pool ambion single siRNA, the values are p65 translocation z-score, replicate mean -1.48; p65 translocation z-score, replicate 1 = -1.17; p65 translocation z-score, replicate 2 = -1.79; gene median z-score, per vendor -1.17.
Mrpl35 #2, siRNA vendor or control pool ambion single siRNA showed p65 translocation z-score, replicate mean 2.78 (active); p65 translocation z-score, replicate 1 = 2.78; gene median z-score, per vendor -1.17.
Mrpl35 #3, siRNA vendor or control pool ambion single siRNA showed p65 translocation z-score, replicate mean -1.61; p65 translocation z-score, replicate 1 = -3.4; p65 translocation z-score, replicate 2 = 0.172; gene median z-score, per vendor -1.17.
Mrpl35 #4, siRNA vendor or control pool qiagen single siRNA showed p65 translocation z-score, replicate mean 1.93; p65 translocation z-score, replicate 1 = 0.319; p65 translocation z-score, replicate 2 = 3.54; gene median z-score, per vendor 0.645.
With Mrpl35 #5, siRNA vendor or control pool qiagen single siRNA the deposit lists p65 translocation z-score, replicate mean 1.97; p65 translocation z-score, replicate 1 = 0.971; p65 translocation z-score, replicate 2 = 2.97; gene median z-score, per vendor 0.645.
For Mrpl35 #6, siRNA vendor or control pool qiagen single siRNA the deposit lists p65 translocation z-score, replicate mean -1.27; p65 translocation z-score, replicate 1 = 0.0352; p65 translocation z-score, replicate 2 = -2.57; gene median z-score, per vendor 0.645.
Usp43 #1, siRNA vendor or control pool ambion single siRNA scored p65 translocation z-score, replicate mean -0.858; p65 translocation z-score, replicate 1 = -0.0689; p65 translocation z-score, replicate 2 = -1.65; gene median z-score, per vendor 0.409.
Usp43 #2, siRNA vendor or control pool ambion single siRNA scored p65 translocation z-score, replicate mean 0.446; p65 translocation z-score, replicate 1 = 1.38; p65 translocation z-score, replicate 2 = -0.487; gene median z-score, per vendor 0.409.
Usp43 #3, siRNA vendor or control pool ambion single siRNA scored p65 translocation z-score, replicate mean 1.59; p65 translocation z-score, replicate 1 = 2.3; p65 translocation z-score, replicate 2 = 0.888; gene median z-score, per vendor 0.409.
For Krt79 #1, siRNA vendor or control pool ambion single siRNA the deposit lists p65 translocation z-score, replicate mean 0.228; p65 translocation z-score, replicate 1 = 0.86; p65 translocation z-score, replicate 2 = -0.405; gene median z-score, per vendor 0.86.
Krt79 #2, siRNA vendor or control pool ambion single siRNA scored p65 translocation z-score, replicate mean 2.75 (active); p65 translocation z-score, replicate 1 = 2.16; p65 translocation z-score, replicate 2 = 3.34; gene median z-score, per vendor 0.86.
For Krt79 #3, siRNA vendor or control pool ambion single siRNA, the entry reads p65 translocation z-score, replicate mean -1.75; p65 translocation z-score, replicate 1 = -1.75; gene median z-score, per vendor 0.86.
Krt79 #4, siRNA vendor or control pool qiagen single siRNA scored p65 translocation z-score, replicate mean 1.17; p65 translocation z-score, replicate 1 = 0.321; p65 translocation z-score, replicate 2 = 2.01; gene median z-score, per vendor 0.857.
With Krt79 #5, siRNA vendor or control pool qiagen single siRNA, the entry reads p65 translocation z-score, replicate mean 0.714; p65 translocation z-score, replicate 1 = 1.39; p65 translocation z-score, replicate 2 = 0.035; gene median z-score, per vendor 0.857.
Krt79 #6, siRNA vendor or control pool qiagen single siRNA showed gene median z-score, per vendor 0.857.
